Test results as given in article PMC8143644.

Experiments:
Experiment in all cases: affinity purification with mass spectrometry; whole ovaries of flies expressing GFP-tagged baits lysed in 50 mM Tris-HCl pH 7.5, 100 mM NaCl, 250 mM sucrose, 0.1% Nonidet P-40, 1 mM DTT; RNase A/T1 treated; GFP-TRAP MA beads, 1 h at 4 °C; tag alone as control; label-free LC-MS/MS (all six baits) and dimethyl labeling MS (Hrp48, Vas)
[1] = molecular target: T1, Stau-GFP (Drosophila melanogaster) (UniProt P25159)
T1 sequence: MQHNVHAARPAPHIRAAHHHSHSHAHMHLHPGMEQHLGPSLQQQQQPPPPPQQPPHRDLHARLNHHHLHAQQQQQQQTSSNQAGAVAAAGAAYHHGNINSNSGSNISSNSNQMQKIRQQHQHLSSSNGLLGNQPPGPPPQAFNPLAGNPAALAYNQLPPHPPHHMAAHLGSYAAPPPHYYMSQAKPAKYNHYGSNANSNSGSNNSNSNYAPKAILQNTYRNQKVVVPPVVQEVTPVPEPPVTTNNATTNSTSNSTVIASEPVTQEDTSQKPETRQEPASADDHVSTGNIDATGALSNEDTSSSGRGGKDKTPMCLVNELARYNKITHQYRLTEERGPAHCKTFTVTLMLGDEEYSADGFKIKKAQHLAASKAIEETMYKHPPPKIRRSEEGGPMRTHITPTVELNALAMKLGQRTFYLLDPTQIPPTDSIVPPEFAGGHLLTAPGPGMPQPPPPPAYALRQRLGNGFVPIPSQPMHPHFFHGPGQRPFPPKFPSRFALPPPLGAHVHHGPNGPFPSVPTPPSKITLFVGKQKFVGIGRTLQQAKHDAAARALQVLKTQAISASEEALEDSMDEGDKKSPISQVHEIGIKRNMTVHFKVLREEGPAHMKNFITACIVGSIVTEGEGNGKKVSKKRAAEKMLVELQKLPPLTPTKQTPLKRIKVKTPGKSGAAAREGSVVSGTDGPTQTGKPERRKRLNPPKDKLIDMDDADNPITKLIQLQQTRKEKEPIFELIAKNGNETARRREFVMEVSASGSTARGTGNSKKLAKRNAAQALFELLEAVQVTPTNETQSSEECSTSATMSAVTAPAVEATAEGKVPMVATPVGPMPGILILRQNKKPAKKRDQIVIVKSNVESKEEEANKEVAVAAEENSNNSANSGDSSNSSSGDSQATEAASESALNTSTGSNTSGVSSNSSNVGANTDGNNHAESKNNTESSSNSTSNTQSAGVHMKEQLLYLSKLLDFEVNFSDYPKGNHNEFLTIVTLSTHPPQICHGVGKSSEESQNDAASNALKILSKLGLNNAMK

[2] = molecular target: T2, Vas-GFP (Drosophila melanogaster), P09052; settings: remark: other sources report otherwise
T2 chain: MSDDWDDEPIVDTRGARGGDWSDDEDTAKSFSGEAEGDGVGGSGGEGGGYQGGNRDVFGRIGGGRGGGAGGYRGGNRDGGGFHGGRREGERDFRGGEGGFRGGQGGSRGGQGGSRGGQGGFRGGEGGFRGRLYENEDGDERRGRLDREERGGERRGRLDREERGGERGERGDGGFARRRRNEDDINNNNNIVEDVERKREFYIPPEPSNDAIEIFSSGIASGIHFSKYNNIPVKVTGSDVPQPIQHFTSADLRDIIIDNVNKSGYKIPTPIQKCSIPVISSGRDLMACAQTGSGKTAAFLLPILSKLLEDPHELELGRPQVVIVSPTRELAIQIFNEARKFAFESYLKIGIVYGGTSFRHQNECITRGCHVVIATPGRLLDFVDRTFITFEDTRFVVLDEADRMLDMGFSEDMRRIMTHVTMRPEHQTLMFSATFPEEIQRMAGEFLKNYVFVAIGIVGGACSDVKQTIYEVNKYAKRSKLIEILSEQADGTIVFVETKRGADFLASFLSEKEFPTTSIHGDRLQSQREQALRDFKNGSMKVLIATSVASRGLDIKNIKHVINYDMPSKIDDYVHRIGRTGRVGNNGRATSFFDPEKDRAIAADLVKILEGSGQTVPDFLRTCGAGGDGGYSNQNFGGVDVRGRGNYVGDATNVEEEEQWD

[3] = molecular target: T3, Nos-GFP (Drosophila melanogaster) (UniProt P25724)
T3 sequence: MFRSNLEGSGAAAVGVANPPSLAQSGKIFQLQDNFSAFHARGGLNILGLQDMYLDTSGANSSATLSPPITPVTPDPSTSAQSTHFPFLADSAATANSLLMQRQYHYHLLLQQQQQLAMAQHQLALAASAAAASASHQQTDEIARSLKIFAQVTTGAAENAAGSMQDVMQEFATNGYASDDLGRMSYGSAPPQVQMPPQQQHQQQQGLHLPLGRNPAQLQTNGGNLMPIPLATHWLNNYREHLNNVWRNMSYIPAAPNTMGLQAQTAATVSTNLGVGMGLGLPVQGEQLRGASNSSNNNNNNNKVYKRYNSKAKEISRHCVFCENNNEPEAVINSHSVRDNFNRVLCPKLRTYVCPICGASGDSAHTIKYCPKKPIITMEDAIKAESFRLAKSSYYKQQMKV

binding [1]: binds
B1: Loquacious (endogenous) (protein, UniProt Q9VJY9 1-465)
chain: MDQENFHGSSLPQQLQNLHIQPQQASPNPVQTGFAPRRHYNNLVGLGNGNAVSGSPVKGAPLGQRHVKLKKEKISAQVAQLSQPGQLQLSDVGDPALAGGSGLQGGVGLMGVILPSDEALKFVSETDANGLAMKTPVSILQELLSRRGITPGYELVQIEGAIHEPTFRFRVSFKDKDTPFTAMGAGRSKKEAKHAAARALIDKLIGAQLPESPSSSAGPSVTGLTVAGSGGDGNANATGGGDASDKTVGNPIGWLQEMCMQRRWPPPSYETETEVGLPHERLFTIACSILNYREMGKGKSKKIAKRLAAHRMWMRLQETPIDSGKISDSICGELEGEPRSSENYYGELKDISVPTLTTQHSNKVSQFHKTLKNATGKKLLKLQKTCLKNNKIDYIKLLGEIATENQFEVTYVDIEEKTFSGQFQCLVQLSTLPVGVCHGSGPTAADAQRHAAQNALEYLKIMTKK

binding [2]: binds
B2: Spindle-E, Q9VF26 1-1434 (protein)
chain: MDQEVMDFFDFSKELKRVAAAPQGYISSDPRLMATKFKSSEVPNRELIGTDYVSKIVAKEKCLLNGTLLNEQPQGKRIRTLDDLDTDDEGEETEIRRDDEYYKKFRFNLNRDKNLSIYAKREEILAAINAHPVVIIKGETGCGKTTQVPQYILDEAYKSGKYCNIVVTQPRRIAAISIANRVCQEREWQQNTVCSFQVGLHRPNSLEDTRLLYCTTGVLLNNLINNKTLTHYTHIVLDEVHERDQNMDFLLIVVRRLLATNSRHVKIILMSATIDAKELSDYFTTTNSIPPVITTNHRRKHSIEKFYRDQLGSIIWNEEDVGHQQVPEINKHGYRAAVKIIVIIDNMERKAAIQSRQSYDEALRYGAVLIFLPGIYEIDTMAENLTCMLENDPNIKVSIVRCFSLMTPENQRDVFNPPPPGFRKIILTTNIAESSITVPDVSYVIDFCLAKVKVTDTASSFSSLRLTWASKANCRQRAGRVGRLRSGRVYRMVNKHFYQREMPEFGIPEMLRLPLQNSVLKAKVLNMGSPVEILALALSPPNLSDIHNTILLLKEVGALYLTVDGIYDPLDGDLTYWGTIMSRLPLDTRQSRLIILGYIFNMLEEAIIIAAGLSTPGLFAHEGGRSQLGDSFWMHYIFSDGSGSDLVAIWRVYLTYLNIVENGHDQESAIRWAKRFHVSLRSLKEIHLLVQELRVRCTHLGLIPFPVNPNQMMDDREKAIMLKVIIAGAFYPNYFTRSKESCADTDRNIYQTISGHDPCRTVYFTNFKPAYMGELYTRRIKELFQEVRIPPENMDVTFQEGSQKVFVTFKQDDWIEGSSKYVPVSGRVQSEVYKAVMMRQNRVERPIHIMNPSAFMSYVQQRGIGDVIEGRWIPPTKPLNVELLALPSVFDKTISGSITCIVNCGKFFFQPQSFEECIRNMSEIFNAPQQLRNYVTNASAIAKGMMVLAKRDSYFQRATVIRPENQSNRQPMFYVRFIDYGNCTLLPMQLMRLMPRELTEQYGDLPPRVFECRLAMVQPSSVVSGNNRWSTAANDMLKTVAQCGLIDIEVYSLFNNVAAVLIHMRDGIINDKLVELMLCRRSDEDYMSRKDHDFRLRRQESARNLSTAQRQQINEEYLRSCQLPQDHDLPPPPLEKCKTVVMLKGPNSPLECTMRSITRVGLSKRVNIDHLSVNALLLDADPQDHHDHLIVAHEIAESRNGQTLTARGTTLMPNVQGFGALMVMLFSPTMQLKCNKEGTSYVSVLGGLGCDPDTNEPYFAEHDVLINLDVNILEDDVILINQIRYYIDSVFFNFKEENNPAVSVNERVSIYTQLRSLINRLLCKDRRYIERNMSNADFEWETNPELPLPNEPFGKRAIFPMHSLTELQEEDTGRLVQLRENCSMLHKWRNFEGTLPHMTCKLCNQLLESVPQLRLHLLTILHRDREKQIDYCNQ

binding [3]: binds
B3: CG13090 (Ubiquitin activating enzyme 4) (protein, UniProt Q9VLJ8 1-453)
chain: MMESEVDSERTMLKREIAELRAALNQKEQCLRELDSLFSFATRPEQEVVGNDLESPDVAVHTKLTNDDIARYSRQLILPDFGVQGQLKLKNSSVLIVGLGGLGCPAAQYLAAAGCGHLGLVDYDEVERSNFHRQILHSEDRCGMSKAESARIALLELNPHCEIQCHSRMLYPHNAMHIIRGYDVVLDCTDNVPTRYLLSDACVMLSKPLVSGSALKMDGQLTVYNYANGPCYRCIFPVPPPPEAVTNCGDGGVLGAVTGTIGAMQALEAIKVIVGMGDVLAGRLLIFDGGSGVFRNIRIRSKRPNCHMCSAQPLITELINYEMFCGMHATDKNNPMLLLSTDERLSVEDYQQKIQAQPHLLIDVRPTAEFEICQLPEAVNVPLVEILDDSYLKRLGKQLEDKELPIVLVCRRGNDSQIAVQHLRNRFPTHFVRDLIGGLHAWTNSVDPSFPIY

No constants are given. Whether binding was seen depends on the method and setting. Binding seen in cells or lysates may run through a third protein. These calls come from enrichment with a bait or labelling near it, and not all partners need be listed. Tags and fused reporters may be left off the sequences shown. Each block holds one binder with its values, some of them ahead of it.
